According to paper PMC7712234:
These are yes or no findings as the source states them, for the method shown. Some results given as binding are weak or reduced against the parent protein; the word gives no strength.

The chains behind the UniProt entries cited, without tags or fusion partners.
UniProt C1H8F5: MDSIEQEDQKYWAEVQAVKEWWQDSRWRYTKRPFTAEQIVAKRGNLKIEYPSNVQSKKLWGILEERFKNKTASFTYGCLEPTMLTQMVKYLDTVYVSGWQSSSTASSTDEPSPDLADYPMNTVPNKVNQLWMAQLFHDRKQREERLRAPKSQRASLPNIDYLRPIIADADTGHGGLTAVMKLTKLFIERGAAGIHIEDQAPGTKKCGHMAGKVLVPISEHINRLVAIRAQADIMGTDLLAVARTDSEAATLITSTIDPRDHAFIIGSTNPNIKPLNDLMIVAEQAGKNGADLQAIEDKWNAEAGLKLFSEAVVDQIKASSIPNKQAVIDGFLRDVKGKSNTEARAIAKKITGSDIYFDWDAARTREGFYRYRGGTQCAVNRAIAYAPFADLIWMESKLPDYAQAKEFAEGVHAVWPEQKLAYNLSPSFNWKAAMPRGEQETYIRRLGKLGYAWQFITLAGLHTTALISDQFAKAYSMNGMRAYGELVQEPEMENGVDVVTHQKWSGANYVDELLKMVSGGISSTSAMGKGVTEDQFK

Molecular target: Paracoccidioides lutzii isocitrate lyase (Paracoccidioides lutzii (endogenous in P. lutzii ATCC-MYA-826)) (UniProt C1H8F5)
Assay: native gel or EMSA; blue native PAGE of soluble total protein extracts from mycelium, mycelium-to-yeast transition and yeast; 5-18% gradient gel, Bis-Tris pH 7.0, 15 °C; the phase is not told for each partner

binding: binds
B1: triosephosphate isomerase (protein, UniProt Q96VN5 1-249)
chain: MPRKFFVGGNFKMNGTAKSITHIITNLNSAKLDPSTEIVIAPPAIYLVLARQLANGQVAVSAQNVFDKPNGAFTGELSVEQLRDEKITWTLAGHSERRVLLREDDEFVARKTKAAINGGLNVILCIGESLEEREAGKTIDVVTRQLDAVAEEVSPAEWNKVVIAYEPIWAIGTGKVATTEQAQEVHASIRKWLNEKISPEAAENIRVIYGGSVTENNCRDLAAQPDVDGFLVGGASLKPAFVDIINARL
